Laboratory results taken from the supplement of paper PMC7666118.
Some of the results follow.

Amino acid sequences for entries named in this document (tags omitted). A change or cut given only in a name is not applied to a line headed by its entry.
UniProt Q9H777: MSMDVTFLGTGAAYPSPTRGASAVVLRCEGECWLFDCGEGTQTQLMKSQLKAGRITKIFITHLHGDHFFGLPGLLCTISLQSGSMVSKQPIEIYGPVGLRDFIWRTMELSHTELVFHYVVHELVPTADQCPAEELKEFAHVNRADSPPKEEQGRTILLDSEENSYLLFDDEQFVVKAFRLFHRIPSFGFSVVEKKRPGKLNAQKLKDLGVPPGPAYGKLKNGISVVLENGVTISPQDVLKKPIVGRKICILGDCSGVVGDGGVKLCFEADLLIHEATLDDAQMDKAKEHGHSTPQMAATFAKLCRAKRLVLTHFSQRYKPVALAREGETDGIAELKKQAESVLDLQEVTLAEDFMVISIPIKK
UniProt Q9H098: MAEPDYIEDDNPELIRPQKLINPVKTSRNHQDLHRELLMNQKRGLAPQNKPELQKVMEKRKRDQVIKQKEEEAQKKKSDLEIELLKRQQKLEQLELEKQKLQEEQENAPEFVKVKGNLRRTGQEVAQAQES
UniProt Q9NP97, whole entry: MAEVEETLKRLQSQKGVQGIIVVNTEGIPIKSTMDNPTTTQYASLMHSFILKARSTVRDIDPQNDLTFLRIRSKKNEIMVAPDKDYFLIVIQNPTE
UniProt P50402: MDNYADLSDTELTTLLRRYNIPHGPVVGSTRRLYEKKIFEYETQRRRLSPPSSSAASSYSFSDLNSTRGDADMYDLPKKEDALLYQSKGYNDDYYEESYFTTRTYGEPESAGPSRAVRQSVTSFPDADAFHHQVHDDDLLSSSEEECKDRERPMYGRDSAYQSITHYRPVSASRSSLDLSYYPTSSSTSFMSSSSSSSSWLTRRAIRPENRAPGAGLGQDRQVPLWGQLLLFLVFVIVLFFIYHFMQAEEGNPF
UniProt Q93063: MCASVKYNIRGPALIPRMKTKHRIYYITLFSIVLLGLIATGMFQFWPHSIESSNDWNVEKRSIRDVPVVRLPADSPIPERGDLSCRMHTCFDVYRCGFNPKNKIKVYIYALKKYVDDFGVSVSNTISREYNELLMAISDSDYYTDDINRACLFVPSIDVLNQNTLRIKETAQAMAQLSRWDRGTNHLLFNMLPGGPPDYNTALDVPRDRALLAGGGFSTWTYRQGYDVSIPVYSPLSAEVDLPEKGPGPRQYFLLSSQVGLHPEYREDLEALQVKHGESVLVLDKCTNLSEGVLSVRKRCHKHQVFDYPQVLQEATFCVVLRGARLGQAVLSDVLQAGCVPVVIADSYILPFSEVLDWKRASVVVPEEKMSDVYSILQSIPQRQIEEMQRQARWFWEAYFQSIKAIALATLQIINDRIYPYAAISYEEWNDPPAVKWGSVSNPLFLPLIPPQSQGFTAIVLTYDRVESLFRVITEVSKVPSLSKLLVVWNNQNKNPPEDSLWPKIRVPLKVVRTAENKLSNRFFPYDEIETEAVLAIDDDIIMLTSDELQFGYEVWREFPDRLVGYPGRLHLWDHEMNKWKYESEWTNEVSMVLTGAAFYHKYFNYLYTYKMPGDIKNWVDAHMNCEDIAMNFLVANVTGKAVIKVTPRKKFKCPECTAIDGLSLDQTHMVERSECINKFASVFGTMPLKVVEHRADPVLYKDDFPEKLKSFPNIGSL
UniProt O60869: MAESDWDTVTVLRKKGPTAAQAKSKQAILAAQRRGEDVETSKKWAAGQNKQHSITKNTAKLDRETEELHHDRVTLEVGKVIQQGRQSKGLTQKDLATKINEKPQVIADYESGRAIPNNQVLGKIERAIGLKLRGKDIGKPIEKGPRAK
UniProt P60228, whole entry: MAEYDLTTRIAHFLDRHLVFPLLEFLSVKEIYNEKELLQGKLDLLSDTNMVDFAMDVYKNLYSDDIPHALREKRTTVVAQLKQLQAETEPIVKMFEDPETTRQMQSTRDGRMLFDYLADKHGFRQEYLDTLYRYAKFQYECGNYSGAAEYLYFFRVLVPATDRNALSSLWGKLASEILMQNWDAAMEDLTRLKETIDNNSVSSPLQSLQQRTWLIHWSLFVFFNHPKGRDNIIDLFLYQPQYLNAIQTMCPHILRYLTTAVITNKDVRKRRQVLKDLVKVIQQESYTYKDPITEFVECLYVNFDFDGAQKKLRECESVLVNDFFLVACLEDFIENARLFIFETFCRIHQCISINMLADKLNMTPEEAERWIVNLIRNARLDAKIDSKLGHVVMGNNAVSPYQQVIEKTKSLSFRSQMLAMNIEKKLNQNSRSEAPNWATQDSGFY
UniProt P26641, whole entry: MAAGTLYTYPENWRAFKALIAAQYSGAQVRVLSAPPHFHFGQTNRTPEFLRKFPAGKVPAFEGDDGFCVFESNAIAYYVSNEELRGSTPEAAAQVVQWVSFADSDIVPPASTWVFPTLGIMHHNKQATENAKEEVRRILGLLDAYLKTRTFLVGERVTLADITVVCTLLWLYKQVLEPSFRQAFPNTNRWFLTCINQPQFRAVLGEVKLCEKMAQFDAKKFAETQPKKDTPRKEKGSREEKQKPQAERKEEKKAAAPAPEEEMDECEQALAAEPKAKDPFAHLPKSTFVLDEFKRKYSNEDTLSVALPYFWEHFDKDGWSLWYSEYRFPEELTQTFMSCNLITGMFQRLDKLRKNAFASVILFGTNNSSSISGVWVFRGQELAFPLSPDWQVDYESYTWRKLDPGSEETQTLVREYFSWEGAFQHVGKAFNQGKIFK
UniProt O75616: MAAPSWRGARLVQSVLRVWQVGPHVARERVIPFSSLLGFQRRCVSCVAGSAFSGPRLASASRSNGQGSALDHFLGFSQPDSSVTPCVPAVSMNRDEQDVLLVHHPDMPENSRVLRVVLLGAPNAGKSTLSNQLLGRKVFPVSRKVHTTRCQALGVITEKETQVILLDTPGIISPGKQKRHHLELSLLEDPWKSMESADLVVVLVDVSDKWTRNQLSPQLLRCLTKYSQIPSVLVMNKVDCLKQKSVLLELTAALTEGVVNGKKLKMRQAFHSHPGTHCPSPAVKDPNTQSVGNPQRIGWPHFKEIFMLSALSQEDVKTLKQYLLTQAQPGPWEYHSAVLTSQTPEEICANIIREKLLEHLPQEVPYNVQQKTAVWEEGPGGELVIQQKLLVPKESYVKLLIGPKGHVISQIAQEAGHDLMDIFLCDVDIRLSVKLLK
UniProt Q9UKV8, whole entry: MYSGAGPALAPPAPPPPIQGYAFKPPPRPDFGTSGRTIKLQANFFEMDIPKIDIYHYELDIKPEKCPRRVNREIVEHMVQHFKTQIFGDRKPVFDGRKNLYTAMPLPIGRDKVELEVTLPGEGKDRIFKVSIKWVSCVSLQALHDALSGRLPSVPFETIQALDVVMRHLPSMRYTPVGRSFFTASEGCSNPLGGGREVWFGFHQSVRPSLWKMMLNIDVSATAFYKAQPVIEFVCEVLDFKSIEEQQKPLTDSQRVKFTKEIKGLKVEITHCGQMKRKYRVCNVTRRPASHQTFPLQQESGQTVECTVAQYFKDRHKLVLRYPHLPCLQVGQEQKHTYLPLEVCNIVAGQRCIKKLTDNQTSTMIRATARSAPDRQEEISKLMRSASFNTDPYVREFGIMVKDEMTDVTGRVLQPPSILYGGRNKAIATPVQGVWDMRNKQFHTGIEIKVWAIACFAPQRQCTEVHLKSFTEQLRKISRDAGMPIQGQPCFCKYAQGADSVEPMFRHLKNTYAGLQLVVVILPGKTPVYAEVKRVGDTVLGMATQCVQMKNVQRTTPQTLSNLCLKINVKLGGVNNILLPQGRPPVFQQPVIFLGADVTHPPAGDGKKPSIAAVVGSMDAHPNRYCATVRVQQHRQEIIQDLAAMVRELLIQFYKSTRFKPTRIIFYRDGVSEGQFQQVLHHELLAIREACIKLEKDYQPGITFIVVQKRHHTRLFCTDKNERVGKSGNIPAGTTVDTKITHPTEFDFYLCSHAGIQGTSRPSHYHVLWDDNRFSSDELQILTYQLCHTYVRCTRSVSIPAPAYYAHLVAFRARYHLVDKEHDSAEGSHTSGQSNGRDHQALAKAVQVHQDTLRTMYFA
UniProt Q5BKY9: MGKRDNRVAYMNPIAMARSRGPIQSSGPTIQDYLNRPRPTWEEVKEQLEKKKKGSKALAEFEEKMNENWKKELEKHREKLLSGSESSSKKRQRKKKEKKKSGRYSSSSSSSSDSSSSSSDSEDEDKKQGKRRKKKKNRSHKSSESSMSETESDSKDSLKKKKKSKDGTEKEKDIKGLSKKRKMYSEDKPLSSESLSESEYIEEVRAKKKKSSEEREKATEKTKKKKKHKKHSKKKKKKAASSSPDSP
UniProt Q9NVH0: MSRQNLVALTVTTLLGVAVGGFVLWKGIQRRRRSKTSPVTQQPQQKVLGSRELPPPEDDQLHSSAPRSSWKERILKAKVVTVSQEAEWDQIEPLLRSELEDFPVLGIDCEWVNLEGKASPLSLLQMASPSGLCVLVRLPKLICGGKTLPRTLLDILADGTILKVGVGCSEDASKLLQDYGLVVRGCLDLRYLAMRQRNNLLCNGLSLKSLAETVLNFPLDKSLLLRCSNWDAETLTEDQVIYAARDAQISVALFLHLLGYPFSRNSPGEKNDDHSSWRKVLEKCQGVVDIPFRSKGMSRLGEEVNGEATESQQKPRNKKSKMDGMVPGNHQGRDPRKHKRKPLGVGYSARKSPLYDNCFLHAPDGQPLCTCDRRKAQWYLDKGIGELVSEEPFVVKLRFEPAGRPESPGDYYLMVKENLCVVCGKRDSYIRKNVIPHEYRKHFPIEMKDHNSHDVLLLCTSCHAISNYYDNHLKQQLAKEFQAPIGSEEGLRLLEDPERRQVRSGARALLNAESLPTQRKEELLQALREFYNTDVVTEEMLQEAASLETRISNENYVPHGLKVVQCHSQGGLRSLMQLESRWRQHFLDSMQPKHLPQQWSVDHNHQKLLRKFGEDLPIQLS
UniProt P18146, whole entry, looked up: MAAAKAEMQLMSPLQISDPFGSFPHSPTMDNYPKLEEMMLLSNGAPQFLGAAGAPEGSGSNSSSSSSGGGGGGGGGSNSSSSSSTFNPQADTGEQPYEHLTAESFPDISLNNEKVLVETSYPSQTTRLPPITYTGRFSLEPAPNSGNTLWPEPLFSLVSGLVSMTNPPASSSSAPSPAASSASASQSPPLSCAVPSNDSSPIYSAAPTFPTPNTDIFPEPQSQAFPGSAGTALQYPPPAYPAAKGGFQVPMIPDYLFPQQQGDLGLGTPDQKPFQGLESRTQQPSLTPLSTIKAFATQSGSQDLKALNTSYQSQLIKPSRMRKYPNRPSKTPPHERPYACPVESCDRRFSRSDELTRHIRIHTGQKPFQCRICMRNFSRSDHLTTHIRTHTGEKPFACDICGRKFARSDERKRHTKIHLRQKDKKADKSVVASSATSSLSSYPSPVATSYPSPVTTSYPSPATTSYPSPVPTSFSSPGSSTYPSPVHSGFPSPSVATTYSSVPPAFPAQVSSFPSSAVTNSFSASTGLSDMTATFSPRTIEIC
UniProt P32519: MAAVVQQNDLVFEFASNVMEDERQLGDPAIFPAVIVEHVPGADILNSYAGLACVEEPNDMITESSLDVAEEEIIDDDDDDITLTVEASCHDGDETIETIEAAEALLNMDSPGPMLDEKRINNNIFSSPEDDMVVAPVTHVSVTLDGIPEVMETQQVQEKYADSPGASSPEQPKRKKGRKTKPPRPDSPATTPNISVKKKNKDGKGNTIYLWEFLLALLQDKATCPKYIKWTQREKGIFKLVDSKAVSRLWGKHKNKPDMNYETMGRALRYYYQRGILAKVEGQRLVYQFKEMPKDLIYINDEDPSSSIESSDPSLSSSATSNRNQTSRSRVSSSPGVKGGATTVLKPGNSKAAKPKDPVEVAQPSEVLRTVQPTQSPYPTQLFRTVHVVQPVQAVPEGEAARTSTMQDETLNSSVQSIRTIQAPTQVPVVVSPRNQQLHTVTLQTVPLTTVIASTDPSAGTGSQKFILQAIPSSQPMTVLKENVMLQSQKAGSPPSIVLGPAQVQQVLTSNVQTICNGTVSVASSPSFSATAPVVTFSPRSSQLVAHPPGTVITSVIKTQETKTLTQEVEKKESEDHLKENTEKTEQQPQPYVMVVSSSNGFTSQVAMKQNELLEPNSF
UniProt O60573: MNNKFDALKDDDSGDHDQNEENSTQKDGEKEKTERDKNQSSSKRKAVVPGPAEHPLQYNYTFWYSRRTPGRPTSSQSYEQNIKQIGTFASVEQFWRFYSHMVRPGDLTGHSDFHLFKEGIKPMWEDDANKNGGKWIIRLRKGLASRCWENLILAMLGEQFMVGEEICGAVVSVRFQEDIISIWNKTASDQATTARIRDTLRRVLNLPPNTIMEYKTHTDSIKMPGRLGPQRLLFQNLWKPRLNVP
UniProt P09104, whole entry: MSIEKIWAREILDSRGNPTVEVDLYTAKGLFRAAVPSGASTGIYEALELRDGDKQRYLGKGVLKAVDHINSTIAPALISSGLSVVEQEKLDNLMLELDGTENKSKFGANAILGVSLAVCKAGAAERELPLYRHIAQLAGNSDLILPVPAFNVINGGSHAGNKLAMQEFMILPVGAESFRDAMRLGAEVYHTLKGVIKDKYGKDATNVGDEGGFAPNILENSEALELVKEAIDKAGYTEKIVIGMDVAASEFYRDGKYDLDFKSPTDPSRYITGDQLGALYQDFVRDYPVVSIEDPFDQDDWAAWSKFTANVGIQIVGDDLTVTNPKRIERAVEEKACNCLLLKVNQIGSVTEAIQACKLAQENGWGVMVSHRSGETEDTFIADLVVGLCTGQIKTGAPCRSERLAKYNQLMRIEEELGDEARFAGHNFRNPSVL

The targets below were run with COc1ccc(Cn2ccc3cc(C)c(C(=O)NO)cc32)cc1 (assay: dose-dependent thermal stabilisation call (2D-TPP, DLPTP, 10% FDR) (binary (1 = stabilised)); higher = stabilised by the compound). Details: system: HL-60 intact cells; concentration range 0.04-10 µM.
Experimental: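 2D thermal proteome profiling in intact HL-60 cells treated with BRD-3811 (0, 0.04, 0.29, 2, 10 uM) for 90 min at 37 C, then heated 3 min at one of 12 temperatures (42-63.9 C). Soluble protein was quantified by TMT10 MS. The value is the DLPTP call of the paper: dose-dependent thermal stabilisation over all temperatures at 10% FDR (F-test of a dose-response against a flat model); one experiment, one call per tested protein.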
With ELAC1 (UniProt Q9H777) the “dose-dependent thermal stabilisation call” value was inactive: 0. For DSG2 (UniProt Q14126), the “dose-dependent thermal stabilisation call” value was inactive: 0. With FAM107B (UniProt Q9H098) the “dose-dependent thermal stabilisation call” value was inactive: 0. For DYNLRB1 (UniProt Q9NP97), the “dose-dependent thermal stabilisation call” value was inactive: 0. For EFTUD1 (UniProt Q7Z2Z2), the “dose-dependent thermal stabilisation call” value was inactive: 0. For EMD (UniProt P50402), the “dose-dependent thermal stabilisation call” value was inactive: 0. For ENTPD7 (UniProt Q9NQZ7), the “dose-dependent thermal stabilisation call” value was inactive: 0. With EXT2 (UniProt Q93063) the “dose-dependent thermal stabilisation call” value was inactive: 0. With FAM122B (UniProt Q7Z309) the “dose-dependent thermal stabilisation call” value was inactive: 0. In the case of EDF1 (UniProt O60869), the “dose-dependent thermal stabilisation call” value is reported as inactive: 0. With EIF3E (UniProt P60228) the “dose-dependent thermal stabilisation call” value was inactive: 0. EXOSC9 (UniProt Q06265) was tested, and the “dose-dependent thermal stabilisation call” value was inactive: 0. With EEF1G (UniProt P26641) the “dose-dependent thermal stabilisation call” value was inactive: 0. With EDD1 (UniProt O95071) the “dose-dependent thermal stabilisation call” value was inactive: 0. ENG (UniProt P17813) was tested, and the “dose-dependent thermal stabilisation call” value was inactive: 0. With EXOSC4 (UniProt Q9NPD3) the “dose-dependent thermal stabilisation call” value was inactive: 0. With DYNC2H1 (UniProt Q8NCM8) the “dose-dependent thermal stabilisation call” value was inactive: 0. With ERAL1 (UniProt O75616) the “dose-dependent thermal stabilisation call” value was inactive: 0. With EIF2C2 (UniProt Q9UKV8) the “dose-dependent thermal stabilisation call” value was inactive: 0. With EPB41 (UniProt P11171) the “dose-dependent thermal stabilisation call” value was inactive: 0. For ERCC4 (UniProt Q92889), the “dose-dependent thermal stabilisation call” value was inactive: 0. With FAM133B (UniProt Q5BKY9) the “dose-dependent thermal stabilisation call” value was inactive: 0. For FAM162A (UniProt Q96A26), the “dose-dependent thermal stabilisation call” value was inactive: 0. With FAM120A (UniProt Q9NZB2) the “dose-dependent thermal stabilisation call” value was inactive: 0. With EXDL2 (UniProt Q9NVH0) the “dose-dependent thermal stabilisation call” value was inactive: 0. With EIF2A (UniProt Q9BY44) the “dose-dependent thermal stabilisation call” value was inactive: 0. With E2F6 (UniProt O75461) the “dose-dependent thermal stabilisation call” value was inactive: 0. For EGR1 (UniProt P18146), the “dose-dependent thermal stabilisation call” value was inactive: 0. With EIF4ENIF1 (UniProt Q9NRA8) the “dose-dependent thermal stabilisation call” value was inactive: 0. For EXTL2 (UniProt Q9UBQ6), the “dose-dependent thermal stabilisation call” value was inactive: 0. With EEF2K (UniProt O00418) the “dose-dependent thermal stabilisation call” value was inactive: 0. With ELF1 (UniProt P32519) the “dose-dependent thermal stabilisation call” value was inactive: 0. With EIF4E2 (UniProt O60573) the “dose-dependent thermal stabilisation call” value was inactive: 0. For EAF1 (UniProt Q96JC9), the “dose-dependent thermal stabilisation call” value was inactive: 0. FAM136A (UniProt Q96C01) was tested, and the “dose-dependent thermal stabilisation call” value was inactive: 0. For ENO2 (UniProt P09104), the “dose-dependent thermal stabilisation call” value was inactive: 0.
